PubChem BioAssay AID504804 | Drosophila RNAi Screening Center | 2011

Screen: 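Fly genes whose loss lessens doxorubicin-driven cell death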 (primary screen)
System: Drosophila Kc cells
Reagents: long dsRNA against Drosophila genes, 0.5 µg dsRNA per well
Time to read-out: 96 h (48 h knock-down, then 48 h drug)
Challenge: doxorubicin 5 µg/ml for 48 h, added 48 h after dsRNA
Measurement: 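Luminescent ATP counts per replicate, not normalised, reflecting viable cells after 48 h dsRNA knock-down followed by 48 h of 5 µg/ml doxorubicin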
Direction: raw ATP luminescence: higher = more viable cells, protection from doxorubicin
Call rule: 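Active when both duplicate wells lie at least 2 SD above the plate mean and protection is confirmed by rescreening and independent dsRNAs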
The screen tested about 19,000 reagents; shown is a random part of those with a known target gene and a result. In the full data, 47 (0.25%) got an active call. 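Signals are raw, not normalised; exact z-scores behind calls not deposited; actives needed confirmation, so some wells reaching 2 SD are inactive.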 Unmarked entries are inactive. Reagents against one gene are numbered here. A plus sign joins genes that one reagent is predicted to hit. Reagent sequences are not shown.

For CG7730, the entry reads raw ATP luminescence, replicate 1 = 24007; raw ATP luminescence, replicate 2 = 24697.
For CG18139 (retired record) + Hmx the deposit lists SD above plate mean at least 2 SD above plate mean (active); raw ATP luminescence, replicate 1 = 1.22e5; raw ATP luminescence, replicate 2 = 1.10e5.
With knock-down of mah (mahogany), the screen gave raw ATP luminescence, replicate 1 = 75060; raw ATP luminescence, replicate 2 = 84720.
Against Brms1 (BRMS1 transcriptional repressor), the values are raw ATP luminescence, replicate 1 = 3.94e5; raw ATP luminescence, replicate 2 = 2.91e5.
Against Pmm2 (Phosphomannomutase type 2) the deposit lists raw ATP luminescence, replicate 1 = 73300; raw ATP luminescence, replicate 2 = 55490.
Esp (Epidermal stripes and patches) scored raw ATP luminescence, replicate 1 = 72440; raw ATP luminescence, replicate 2 = 52370.
Silencing of CG7135 resulted in: raw ATP luminescence, replicate 1 = 3.30e5; raw ATP luminescence, replicate 2 = 3.42e5.
Depletion of Yeti gave: raw ATP luminescence, replicate 1 = 1.94e5; raw ATP luminescence, replicate 2 = 2.06e5.
CG42580 gave raw ATP luminescence, replicate 1 = 1.68e5; raw ATP luminescence, replicate 2 = 1.93e5.
Knock-down of CG34165 resulted in: raw ATP luminescence, replicate 1 = 28203; raw ATP luminescence, replicate 2 = 24110.
Knock-down of CG10713 came out at: raw ATP luminescence, replicate 1 = 73210; raw ATP luminescence, replicate 2 = 67267.
After knock-down of CG1671 the results were raw ATP luminescence, replicate 1 = 62830; raw ATP luminescence, replicate 2 = 55793.
After knock-down of CG7328, the screen gave raw ATP luminescence, replicate 1 = 57167; raw ATP luminescence, replicate 2 = 57027.
With knock-down of CG13488, the record shows raw ATP luminescence, replicate 1 = 81167; raw ATP luminescence, replicate 2 = 79383.
With knock-down of CG3699 #1, the record shows raw ATP luminescence, replicate 1 = 51150; raw ATP luminescence, replicate 2 = 21740.
CG3699 #2 gave raw ATP luminescence, replicate 1 = 68140; raw ATP luminescence, replicate 2 = 49280.
CG11997 scored raw ATP luminescence, replicate 1 = 66977; raw ATP luminescence, replicate 2 = 57413.
With knock-down of Ir7a (Ionotropic receptor 7a) the results were raw ATP luminescence, replicate 1 = 44000; raw ATP luminescence, replicate 2 = 42730.
Silencing of CG31191 #1 gave: raw ATP luminescence, replicate 1 = 2.11e5; raw ATP luminescence, replicate 2 = 2.41e5.
Against CG31191 #2, the values are raw ATP luminescence, replicate 1 = 46640; raw ATP luminescence, replicate 2 = 68200.
Against CG31191 #3, the values are raw ATP luminescence, replicate 1 = 20310; raw ATP luminescence, replicate 2 = 26590.
Against Fie (Fire exit) the deposit lists raw ATP luminescence, replicate 1 = 37997; raw ATP luminescence, replicate 2 = 38053.
Polr3C (RNA polymerase III subunit C) scored raw ATP luminescence, replicate 1 = 40293; raw ATP luminescence, replicate 2 = 23243.
With knock-down of mew (multiple edematous wings) #1 the results were raw ATP luminescence, replicate 1 = 1.89e5; raw ATP luminescence, replicate 2 = 2.40e5.
For mew (multiple edematous wings) #2, the entry reads raw ATP luminescence, replicate 1 = 3.75e5; raw ATP luminescence, replicate 2 = 3.44e5.
Knock-down of Or59b (Odorant receptor 59b) came out at: raw ATP luminescence, replicate 1 = 41720; raw ATP luminescence, replicate 2 = 72057.
CG15040 scored raw ATP luminescence, replicate 1 = 1.61e5; raw ATP luminescence, replicate 2 = 2.04e5.
Silencing of CG15117 came out at: raw ATP luminescence, replicate 1 = 52957; raw ATP luminescence, replicate 2 = 64563.
